Experimental data as given in patent publication US20240010685A1, “RNA SENSORS AND USES THEREOF” (YISSUM RESEARCH DEVELOPMENT COMPANY OF THE HEBREW …, priority 2020, published 2024).
Some entries share one result that the patent states for a list of compounds.

System: complementary RNA
Experiment: photophysical properties of duplex cpFIT-PNAs with complementary RNA (fluorescence spectrometry)
Assay type: physicochemical
Settings: FIT-PNA:RNA duplex, both flanking bases substituted with cpPNA
Experimental: (A) set 1 showing fluorescence of FIT-PNA:RNA duplex for FIT-PNAs 1-4, (B) set 2 showing fluorescence of FIT-PNA:RNA duplex for FIT-PNAs 5-7 and, (C) enhanced fluorescence of bis-cpFIT-PNAs (4 and 7) after RNA hybridization. [FIT-PNA]=[cpFIT-PNA]=3 μM, [RNA]=4.5 μM.
Fluorescence spectra were recorded by using a Jasco FT-6500 spectrometer. Measurements were carried out in fluorescence quartz cuvettes (10 mm) at a 3 μM concentration of FIT-PNA in a PBS buffered solution (100 mM NaCl, 10 mM NaH2PO4, pH 7). Quantum yields were determined relative to Cresyl Violet in PBS^3. PNAs were hybridized to complementary RNA using a 1:1.5 mixture of PNA:RNA at 37° C. for 1-2 hr. Samples were excited at 575 nm and emission spectra were recorded at 585-800 nm.

Row | Substance | increase in fluorescence compared to unmodified FIT-PNAs (1 and 5)
1 | ^3′(4)KD-ATA-cpC-BisQ-cpT-ACAAC-5′ [FIT-PNA 4] | 2-3 fold
2 | ^3′(4)KD-ATACA-cpT-BisQ-cpC-AAC-^5′ [FIT-PNA 7] | 2-3 fold
